Among the data in paper doi:10.1101/2025.04.25.650548 are binding values, retold here.

Protein sequences, listed by entry. Tags and fused reporters are not part of them.
UniProt Q9UKA4: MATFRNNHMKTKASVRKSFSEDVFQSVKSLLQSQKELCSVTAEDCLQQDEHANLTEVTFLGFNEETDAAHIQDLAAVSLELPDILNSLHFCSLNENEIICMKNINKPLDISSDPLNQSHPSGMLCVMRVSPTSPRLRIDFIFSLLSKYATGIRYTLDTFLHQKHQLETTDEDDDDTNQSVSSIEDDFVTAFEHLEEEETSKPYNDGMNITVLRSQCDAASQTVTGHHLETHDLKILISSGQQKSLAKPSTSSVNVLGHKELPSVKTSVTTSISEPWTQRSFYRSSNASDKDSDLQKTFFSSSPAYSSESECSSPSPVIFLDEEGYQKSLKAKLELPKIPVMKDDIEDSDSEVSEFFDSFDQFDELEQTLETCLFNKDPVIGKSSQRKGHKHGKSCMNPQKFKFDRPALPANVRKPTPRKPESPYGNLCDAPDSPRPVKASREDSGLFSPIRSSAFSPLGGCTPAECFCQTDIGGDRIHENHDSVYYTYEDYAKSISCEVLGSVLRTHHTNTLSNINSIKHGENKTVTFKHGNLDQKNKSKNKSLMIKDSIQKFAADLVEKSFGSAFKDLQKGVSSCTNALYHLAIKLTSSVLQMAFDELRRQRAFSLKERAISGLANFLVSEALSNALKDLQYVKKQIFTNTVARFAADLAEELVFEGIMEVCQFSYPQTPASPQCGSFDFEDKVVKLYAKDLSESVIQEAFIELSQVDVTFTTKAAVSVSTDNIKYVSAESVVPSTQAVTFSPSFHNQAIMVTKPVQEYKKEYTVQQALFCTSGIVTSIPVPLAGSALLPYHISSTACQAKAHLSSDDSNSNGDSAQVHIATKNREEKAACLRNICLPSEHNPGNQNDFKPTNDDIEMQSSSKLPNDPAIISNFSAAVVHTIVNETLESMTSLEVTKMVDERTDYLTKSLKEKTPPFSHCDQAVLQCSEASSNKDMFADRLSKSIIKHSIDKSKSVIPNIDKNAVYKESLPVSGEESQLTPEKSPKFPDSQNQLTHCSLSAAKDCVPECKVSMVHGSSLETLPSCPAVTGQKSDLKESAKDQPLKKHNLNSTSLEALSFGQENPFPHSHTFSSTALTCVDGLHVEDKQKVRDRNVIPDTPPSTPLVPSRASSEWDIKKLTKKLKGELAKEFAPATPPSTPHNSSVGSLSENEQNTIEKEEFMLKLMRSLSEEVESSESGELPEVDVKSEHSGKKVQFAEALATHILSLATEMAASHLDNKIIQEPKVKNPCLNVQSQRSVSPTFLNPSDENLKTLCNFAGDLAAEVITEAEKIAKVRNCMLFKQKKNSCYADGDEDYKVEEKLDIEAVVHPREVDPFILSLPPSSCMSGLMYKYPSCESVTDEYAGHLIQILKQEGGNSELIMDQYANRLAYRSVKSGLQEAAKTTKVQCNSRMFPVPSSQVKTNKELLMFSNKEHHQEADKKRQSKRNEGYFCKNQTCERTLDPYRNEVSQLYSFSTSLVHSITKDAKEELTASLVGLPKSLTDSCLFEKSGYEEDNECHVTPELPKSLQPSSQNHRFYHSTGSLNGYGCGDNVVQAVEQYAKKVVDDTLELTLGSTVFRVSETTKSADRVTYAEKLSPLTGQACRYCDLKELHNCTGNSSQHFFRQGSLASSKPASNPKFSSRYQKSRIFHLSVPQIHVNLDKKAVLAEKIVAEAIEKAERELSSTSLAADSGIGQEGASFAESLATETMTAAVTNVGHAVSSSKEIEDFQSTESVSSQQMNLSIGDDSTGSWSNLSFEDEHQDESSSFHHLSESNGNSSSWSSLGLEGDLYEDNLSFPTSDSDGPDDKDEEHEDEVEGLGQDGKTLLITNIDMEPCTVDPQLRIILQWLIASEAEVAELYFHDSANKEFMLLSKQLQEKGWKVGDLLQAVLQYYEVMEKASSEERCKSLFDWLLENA
UniProt P46940: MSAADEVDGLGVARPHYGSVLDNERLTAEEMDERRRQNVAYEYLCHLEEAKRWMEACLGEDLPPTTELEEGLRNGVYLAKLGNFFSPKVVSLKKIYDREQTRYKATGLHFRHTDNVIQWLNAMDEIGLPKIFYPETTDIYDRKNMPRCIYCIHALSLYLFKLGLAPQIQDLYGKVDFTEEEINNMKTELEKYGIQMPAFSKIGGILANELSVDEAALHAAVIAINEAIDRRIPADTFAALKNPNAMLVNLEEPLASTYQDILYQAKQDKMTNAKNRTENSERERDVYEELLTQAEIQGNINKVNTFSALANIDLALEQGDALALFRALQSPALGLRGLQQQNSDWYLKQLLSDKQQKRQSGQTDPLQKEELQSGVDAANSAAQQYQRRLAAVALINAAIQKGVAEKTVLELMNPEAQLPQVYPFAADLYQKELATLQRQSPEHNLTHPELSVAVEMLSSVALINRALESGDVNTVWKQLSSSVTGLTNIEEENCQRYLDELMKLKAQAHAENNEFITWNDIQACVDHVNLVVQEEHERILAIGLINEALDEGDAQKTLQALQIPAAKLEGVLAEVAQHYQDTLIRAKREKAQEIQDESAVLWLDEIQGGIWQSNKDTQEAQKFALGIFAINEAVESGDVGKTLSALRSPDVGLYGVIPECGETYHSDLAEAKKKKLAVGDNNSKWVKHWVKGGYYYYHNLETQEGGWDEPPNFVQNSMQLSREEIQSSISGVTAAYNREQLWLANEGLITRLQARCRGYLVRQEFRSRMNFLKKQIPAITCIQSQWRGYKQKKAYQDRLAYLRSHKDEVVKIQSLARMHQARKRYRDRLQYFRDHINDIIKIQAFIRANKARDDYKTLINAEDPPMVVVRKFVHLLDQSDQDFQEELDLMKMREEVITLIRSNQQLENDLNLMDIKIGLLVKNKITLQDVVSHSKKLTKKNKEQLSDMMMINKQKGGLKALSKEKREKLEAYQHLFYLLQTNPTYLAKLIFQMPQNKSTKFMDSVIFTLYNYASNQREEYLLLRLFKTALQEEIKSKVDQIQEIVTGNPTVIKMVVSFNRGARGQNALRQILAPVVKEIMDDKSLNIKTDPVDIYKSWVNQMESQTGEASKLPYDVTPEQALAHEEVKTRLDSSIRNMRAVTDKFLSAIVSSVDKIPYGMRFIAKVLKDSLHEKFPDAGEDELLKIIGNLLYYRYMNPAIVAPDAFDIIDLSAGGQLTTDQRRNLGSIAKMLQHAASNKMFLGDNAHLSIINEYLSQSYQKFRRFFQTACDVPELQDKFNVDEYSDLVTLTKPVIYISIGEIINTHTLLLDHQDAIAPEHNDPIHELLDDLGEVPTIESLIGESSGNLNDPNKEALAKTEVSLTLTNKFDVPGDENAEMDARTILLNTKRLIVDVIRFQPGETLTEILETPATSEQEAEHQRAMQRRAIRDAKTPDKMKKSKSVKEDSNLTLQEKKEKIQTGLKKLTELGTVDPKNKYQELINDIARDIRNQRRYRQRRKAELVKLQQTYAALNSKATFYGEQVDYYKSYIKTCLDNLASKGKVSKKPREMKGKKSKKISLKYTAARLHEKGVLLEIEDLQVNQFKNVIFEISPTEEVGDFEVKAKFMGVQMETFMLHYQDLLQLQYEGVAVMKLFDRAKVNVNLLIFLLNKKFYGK
UniProt Q86VI3: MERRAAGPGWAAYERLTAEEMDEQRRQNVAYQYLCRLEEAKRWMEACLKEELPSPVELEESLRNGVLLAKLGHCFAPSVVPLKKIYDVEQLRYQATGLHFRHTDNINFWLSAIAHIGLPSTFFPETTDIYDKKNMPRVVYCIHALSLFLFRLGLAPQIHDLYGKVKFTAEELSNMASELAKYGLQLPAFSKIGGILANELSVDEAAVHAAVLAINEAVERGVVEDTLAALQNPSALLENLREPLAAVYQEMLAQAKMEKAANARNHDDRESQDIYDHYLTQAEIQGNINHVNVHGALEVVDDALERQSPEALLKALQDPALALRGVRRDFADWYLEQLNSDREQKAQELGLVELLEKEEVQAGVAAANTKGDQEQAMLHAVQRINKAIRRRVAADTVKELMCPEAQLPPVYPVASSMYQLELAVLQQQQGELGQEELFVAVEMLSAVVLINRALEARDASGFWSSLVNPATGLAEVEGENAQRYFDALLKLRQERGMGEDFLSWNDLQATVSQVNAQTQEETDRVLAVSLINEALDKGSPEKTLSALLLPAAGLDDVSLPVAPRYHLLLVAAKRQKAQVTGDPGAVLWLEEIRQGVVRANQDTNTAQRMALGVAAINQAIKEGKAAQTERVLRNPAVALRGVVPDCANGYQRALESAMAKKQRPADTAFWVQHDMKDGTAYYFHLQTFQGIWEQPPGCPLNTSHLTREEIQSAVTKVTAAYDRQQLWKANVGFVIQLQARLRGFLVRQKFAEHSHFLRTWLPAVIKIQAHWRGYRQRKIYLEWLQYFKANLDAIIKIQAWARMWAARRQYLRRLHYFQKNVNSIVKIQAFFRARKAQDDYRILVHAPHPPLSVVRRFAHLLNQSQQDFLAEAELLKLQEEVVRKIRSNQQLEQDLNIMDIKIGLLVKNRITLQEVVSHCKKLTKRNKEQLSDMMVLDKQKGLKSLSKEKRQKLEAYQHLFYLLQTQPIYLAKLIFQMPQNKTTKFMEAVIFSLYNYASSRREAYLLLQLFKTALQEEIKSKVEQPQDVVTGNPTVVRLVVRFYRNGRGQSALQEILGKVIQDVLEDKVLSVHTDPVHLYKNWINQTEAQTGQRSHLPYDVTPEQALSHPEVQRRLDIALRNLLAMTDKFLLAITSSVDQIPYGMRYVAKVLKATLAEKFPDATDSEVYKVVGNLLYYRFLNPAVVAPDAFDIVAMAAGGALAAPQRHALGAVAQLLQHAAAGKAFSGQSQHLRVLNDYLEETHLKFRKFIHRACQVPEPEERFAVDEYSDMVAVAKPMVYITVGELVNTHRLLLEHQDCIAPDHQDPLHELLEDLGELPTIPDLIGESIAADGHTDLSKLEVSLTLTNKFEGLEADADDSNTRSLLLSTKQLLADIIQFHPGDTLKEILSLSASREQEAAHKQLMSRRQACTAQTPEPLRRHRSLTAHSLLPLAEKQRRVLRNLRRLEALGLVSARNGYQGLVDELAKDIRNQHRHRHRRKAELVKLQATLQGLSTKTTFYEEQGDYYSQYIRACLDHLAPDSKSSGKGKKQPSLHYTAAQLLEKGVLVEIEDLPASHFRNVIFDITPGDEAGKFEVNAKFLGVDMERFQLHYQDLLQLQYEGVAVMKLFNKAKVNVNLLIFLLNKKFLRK
UniProt P10644: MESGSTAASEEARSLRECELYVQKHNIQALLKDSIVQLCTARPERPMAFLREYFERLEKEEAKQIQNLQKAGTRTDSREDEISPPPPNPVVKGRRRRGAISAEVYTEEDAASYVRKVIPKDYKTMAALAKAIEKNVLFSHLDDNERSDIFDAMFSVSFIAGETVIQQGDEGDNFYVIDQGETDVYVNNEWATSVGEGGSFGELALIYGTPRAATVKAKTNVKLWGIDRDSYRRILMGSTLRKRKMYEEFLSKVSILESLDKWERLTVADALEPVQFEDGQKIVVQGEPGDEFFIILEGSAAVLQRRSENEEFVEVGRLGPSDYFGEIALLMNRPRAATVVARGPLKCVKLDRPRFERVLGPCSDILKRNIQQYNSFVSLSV
UniProt P13861: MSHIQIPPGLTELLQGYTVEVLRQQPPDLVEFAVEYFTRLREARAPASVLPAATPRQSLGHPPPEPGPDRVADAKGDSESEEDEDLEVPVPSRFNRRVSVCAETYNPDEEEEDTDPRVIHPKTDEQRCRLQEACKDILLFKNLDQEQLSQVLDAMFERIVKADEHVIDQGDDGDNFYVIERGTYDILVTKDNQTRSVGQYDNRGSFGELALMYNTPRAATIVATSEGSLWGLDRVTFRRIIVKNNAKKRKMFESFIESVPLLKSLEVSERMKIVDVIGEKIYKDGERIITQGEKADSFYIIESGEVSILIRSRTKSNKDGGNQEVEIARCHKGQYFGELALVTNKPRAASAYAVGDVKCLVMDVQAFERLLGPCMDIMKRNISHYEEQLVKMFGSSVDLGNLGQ
UniProt O95292: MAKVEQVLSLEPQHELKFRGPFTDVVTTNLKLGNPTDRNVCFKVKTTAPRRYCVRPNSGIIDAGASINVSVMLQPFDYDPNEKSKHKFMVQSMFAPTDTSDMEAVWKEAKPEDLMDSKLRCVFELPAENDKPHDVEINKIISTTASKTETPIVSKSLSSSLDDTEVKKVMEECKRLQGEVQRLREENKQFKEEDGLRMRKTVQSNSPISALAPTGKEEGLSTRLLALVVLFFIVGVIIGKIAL

No constants are given. Whether binding was seen depends on the method and setting. Binding seen in cells or lysates may run through a third protein. A yes stands for co-enrichment or nearness to the bait. Other partners may have been found.

To fix the notation:
B1: ABCD3/PMP70 (protein, UniProt P28288 1-659)
chain: MAAFSKYLTARNSSLAGAAFLLLCLLHKRRRALGLHGKKSGKPPLQNNEKEGKKERAVVDKVFFSRLIQILKIMVPRTFCKETGYLVLIAVMLVSRTYCDVWMIQNGTLIESGIIGRSRKDFKRYLLNFIAAMPLISLVNNFLKYGLNELKLCFRVRLTKYLYEEYLQAFTYYKMGNLDNRIANPDQLLTQDVEKFCNSVVDLYSNLSKPFLDIVLYIFKLTSAIGAQGPASMMAYLVVSGLFLTRLRRPIGKMTITEQKYEGEYRYVNSRLITNSEEIAFYNGNKREKQTVHSVFRKLVEHLHNFILFRFSMGFIDSIIAKYLATVVGYLVVSRPFLDLSHPRHLKSTHSELLEDYYQSGRMLLRMSQALGRIVLAGREMTRLAGFTARITELMQVLKDLNHGKYERTMVSQQEKGIEGVQVIPLIPGAGEIIIADNIIKFDHVPLATPNGDVLIRDLNFEVRSGANVLICGPNGCGKSSLFRVLGELWPLFGGRLTKPERGKLFYVPQRPYMTLGTLRDQVIYPDGREDQKRKGISDLVLKEYLDNVQLGHILEREGGWDSVQDWMDVLSGGEKQRMAMARLFYHKPQFAILDECTSAVSVDVEGYIYSHCRKVGITLFTVSHRKSLWKHHEYYLHMDGRGNYEFKQITEDTVEFGS
B2: FAR1 (enzyme, UniProt Q8WVX9 1-515)
chain: MVSIPEYYEGKNVLLTGATGFLGKVLLEKLLRSCPKVNSVYVLVRQKAGQTPQERVEEVLSGKLFDRLRDENPDFREKIIAINSELTQPKLALSEEDKEVIIDSTNIIFHCAATVRFNENLRDAVQLNVIATRQLILLAQQMKNLEVFMHVSTAYAYCNRKHIDEVVYPPPVDPKKLIDSLEWMDDGLVNDITPKLIGDRPNTYIYTKALAEYVVQQEGAKLNVAIVRPSIVGASWKEPFPGWIDNFNGPSGLFIAAGKGILRTIRASNNALADLVPVDVVVNMSLAAAWYSGVNRPRNIMVYNCTTGSTNPFHWGEVEYHVISTFKRNPLEQAFRRPNVNLTSNHLLYHYWIAVSHKAPAFLYDIYLRMTGRSPRMMKTITRLHKAMVFLEYFTSNSWVWNTENVNMLMNQLNPEDKKTFNIDVRQLHWAEYIENYCLGTKKYVLNEEMSGLPAARKHLNKLRNIRYGFNTILVILIWRIFIARSQMARNIWYFVVSLCYKFLSYFRASSTMRY
B3: ACOT8 (enzyme, UniProt O14734 1-319)
chain: MSSPQAPEDGQGCGDRGDPPGDLRSVLVTTVLNLEPLDEDLFRGRHYWVPAKRLFGGQIVGQALVAAAKSVSEDVHVHSLHCYFVRAGDPKLPVLYQVERTRTGSSFSVRSVKAVQHGKPIFICQASFQQAQPSPMQHQFSMPTVPPPEELLDCETLIDQYLRDPNLQKRYPLALNRIAAQEVPIEIKPVNPSPLSQLQRMEPKQMFWVRARGYIGEGDMKMHCCVAAYISDYAFLGTALLPHQWQHKVHFMVSLDHSMWFHAPFRADHWMLYECESPWAGGSRGLVHGRLWRQDGVLAVTCAQEGVIRVKPQVSESKL

This experiment addresses human AKAP11-EGFP (human) (UniProt Q9UKA4). Put plainly: affinity purification with mass spectrometry.
Turning to “E3 ligase HUWE1 (from UniProt Q7Z6Z7 1-4374) (enzyme)”, the binding entry is “binds”. Then IQGAP1 (from UniProt P46940 1-1657), with “binds”; and IQGAP3 (from UniProt Q86VI3 1-1631), with “binds”. Then “PKA R1-α (PRKAR1A) (from UniProt P10644 1-381)”, with “binds”. “PKA R2-α (PRKAR2A) (from UniProt P13861 1-404)”: the binding result is reported as “binds”. “vesicle-associated membrane protein-associated protein VAP-B (from UniProt O95292 1-243)”: the binding entry is “binds”.

On to B1, for which the binding result is given as “binds”. B2: the binding entry is reported as “binds”. To B3 belongs “binds”.
